The values that follow come from PMC4977824.

These are yes or no findings as the source states them, for the method shown. Binding seen in cells or lysates may run through a third protein. Here binding means that the protein was enriched with, or labelled near, the bait; the list need not be complete. For some assays here: A no says only that the protein was not detected with the bait. Where a sequence is shown, tags or fusion partners need not be part of it.

Experiment [1] addresses T1, DLG-1::GTA (DLG-1::GFP-2xTEV-Avi) (C. elegans) (UniProt G5ECY0).
T1 sequence (chain, biotin on the Avi tag (in vivo, by BirA)): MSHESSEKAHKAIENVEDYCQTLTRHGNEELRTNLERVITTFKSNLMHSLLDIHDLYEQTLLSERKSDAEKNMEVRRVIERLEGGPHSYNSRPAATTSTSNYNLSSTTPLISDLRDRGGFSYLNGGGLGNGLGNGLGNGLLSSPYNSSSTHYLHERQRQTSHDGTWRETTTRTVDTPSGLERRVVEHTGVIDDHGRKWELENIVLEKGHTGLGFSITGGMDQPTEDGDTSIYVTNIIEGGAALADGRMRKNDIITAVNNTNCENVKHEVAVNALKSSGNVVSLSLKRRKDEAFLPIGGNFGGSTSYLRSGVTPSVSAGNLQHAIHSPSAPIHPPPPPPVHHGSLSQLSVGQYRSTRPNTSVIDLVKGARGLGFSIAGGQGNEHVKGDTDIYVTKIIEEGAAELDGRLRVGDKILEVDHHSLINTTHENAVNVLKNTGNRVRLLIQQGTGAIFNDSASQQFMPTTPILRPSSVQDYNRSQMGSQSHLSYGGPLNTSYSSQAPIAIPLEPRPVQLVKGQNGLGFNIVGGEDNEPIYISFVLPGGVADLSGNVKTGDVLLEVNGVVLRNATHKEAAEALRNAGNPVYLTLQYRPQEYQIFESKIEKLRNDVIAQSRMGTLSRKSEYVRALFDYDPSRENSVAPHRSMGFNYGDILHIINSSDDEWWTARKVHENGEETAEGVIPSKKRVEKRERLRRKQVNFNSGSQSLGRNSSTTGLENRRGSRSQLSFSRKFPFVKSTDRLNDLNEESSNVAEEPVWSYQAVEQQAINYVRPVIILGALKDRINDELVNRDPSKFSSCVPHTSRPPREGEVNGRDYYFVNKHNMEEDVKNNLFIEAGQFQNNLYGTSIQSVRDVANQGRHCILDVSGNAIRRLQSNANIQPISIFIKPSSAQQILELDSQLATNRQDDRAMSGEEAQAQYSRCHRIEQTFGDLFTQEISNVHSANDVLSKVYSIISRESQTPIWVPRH
The experiment in a line: condition: only DLG-1 biotinylated in the intestine, in epidermal cells or ubiquitously; affinity purification with mass spectrometry; as a1, only the purifications of DLG-1::GTA biotinylated in the intestine, in seam/hyp7 epidermal cells or ubiquitously (not the neuron-specific purification).

For experiment [2], the target named is T1, DLG-1::GTA (DLG-1::GFP-2xTEV-Avi) (C. elegans). The experiment in a line: affinity purification with mass spectrometry; GTA-tagged bait biotinylated in vivo (BirA ubiquitous, intestine, seam/hyp7 or neurons) captured on streptavidin-coated beads from whole-animal lysate (L3/L4; 150 mM NaCl, 20 mM Tris pH 7.8, 5 mM EDTA, 1 % Triton X-100), 1.5 h at 4 °C, released by TEV protease, LC-MS/MS, SAINT scoring against GFP::TEV::Avi controls, triplicates.

B1: MAPH-1.1 (endogenous) (protein, UniProt P91859 1-878)
chain: MPEEYIMSSKACIYVLGGAANTAALFDFDGVYILDGGFAEKNPGFVAHVRDVSAVLLAAPTLGNLGTTSALLEQGKPLPVFTNTKPFKTAKPGSSGEIAKAIQEANSKILSVAPPLFNPKYPANIIYQSAAKGVLSLYILAGDVKDAEVITKALAGGNEAEVEKAAAEHGTIGVLLWRPAMTDQSVVRVLISGTSSLSRIQQSLDKAAKSLPFLNVPTVKSKDALSDIPAPAVPRPVAGKPSARPATTTGTATRPTRPAVPAASAPRALTSRAPAGPSRPTTTRNAAPAPRTAVPSRATVLTKTAPASKAPTRAPVPARSAPAPPRGAPAKPAANTAKAEPIAQKKTVGKVQGTAPSKPAPAAPASAATSPAPAPEAPRRDPNNVTIVLDDSLSPEDFNQGSAPMDIVVIPPTPEPPRHEVAQATHPEESIIDAEDLAKAPLEVDDVANLADVEDEIPPPVDAFKKPEPHPEPNVSGGSEEDKIPEPVDAFKKPDPVELDDFDPLKPSHPEPSAPVVPSDHIIIATPDPELPDIVAAVPFVSPSPKGPNDGLVKLDDELEKIAPGFEEPLIPQAPRDDGTLAECSEEVSKLVEISMDTDNSAEVAADLAKAVGEVTQLSADLQNLGLDEKTDEYVRKLSNQMIEDATLPFTSALASSIVTSNGSETNGHGEQAHAAQNGGIDHQKEIPKHDLMQSRSSVIENGAAVQYEKTDPALDDVLNACAQESEKIDASHPDNLHMPAAPGSAAPAKPVKFARPYYFDVVTVPRNEKLETSVAADGLQEFISKVRSRNVILASKDISGEQLQAILCGKQTWCDSAHPCNVIPTHSSPMLLDFRQKNEEQFAANNLQFSIPVEKQRTTVSSDAGAIEYELARVDLL
B1: the binding entry is “no binding” in experiment [1] and “binds” in experiment [2].
